Data source: PubChem BioAssay AID1259308 (NCATS, 2017)
Screen: 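Genes whose loss raises luciferase production in HEK293 cells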 (primary screen). Cells: human HEK293 embryonic kidney cells stably expressing firefly luciferase (HEK-CMV-Luc2-Hygro). Reagents: single siRNA against human genes, 0.8 pmol siRNA per well. Timing: 72 h. Read-out: 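Reporter luminescence and viable-cell signal on separate replicate plates, given as percent of non-targeting control and median/MAD z-scores, plus per-cell luciferase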. Reading the numbers: total luciferase, z-score and total luciferase, % of control: higher = more reporter protein produced. Hit rule: 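Active when the median/MAD z-score for overall luciferase is greater than 3; a gene was taken forward for validation with new siRNAs if at least two of its three siRNAs passed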. Calls: active = raised luciferase; inactive = no rise.
Here is an unselected part of about 59,000 reagents tested. About 1,510 of all reagents (2.6%) were called active. 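Calls use total luciferase alone and ignore viability, so some active siRNAs may act by altering cell number.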 The numbers tell different reagents against one gene apart. Not all columns of the deposit are shown. No sequences are given here.

IGFLR1 #1 | total luciferase, z-score: 0.632; total luciferase, % of control: 94.5; activity call: inactive
IGFLR1 #2 | total luciferase, z-score: 0.095; total luciferase, % of control: 83.8; activity call: inactive
IGFLR1 #3 | total luciferase, z-score: 0.736; total luciferase, % of control: 96.5; activity call: inactive
HTR3D #1 | total luciferase, z-score: -0.416; total luciferase, % of control: 73.6; activity call: inactive
HTR3D #2 | total luciferase, z-score: 1.07; total luciferase, % of control: 103; activity call: inactive
HTR3D #3 | total luciferase, z-score: -0.344; total luciferase, % of control: 75; activity call: inactive
GPR162 #1 | total luciferase, z-score: -0.357; total luciferase, % of control: 74.8; activity call: inactive
GPR162 #2 | total luciferase, z-score: 0.638; total luciferase, % of control: 94.6; activity call: inactive
GPR162 #3 | total luciferase, z-score: 6.19; total luciferase, % of control: 205; activity call: active
NUSAP1 #1 | total luciferase, z-score: -1.28; total luciferase, % of control: 56.4; activity call: inactive
NUSAP1 #2 | total luciferase, z-score: 0.654; total luciferase, % of control: 94.9; activity call: inactive
NUSAP1 #3 | total luciferase, z-score: -0.968; total luciferase, % of control: 62.6; activity call: inactive
ATP6V1D #1 | total luciferase, z-score: 1.26; total luciferase, % of control: 107; activity call: inactive
ATP6V1D #2 | total luciferase, z-score: -0.454; total luciferase, % of control: 72.9; activity call: inactive
ATP6V1D #3 | total luciferase, z-score: 1.33; total luciferase, % of control: 108; activity call: inactive
UBC #1 | total luciferase, z-score: -3.72; total luciferase, % of control: 7.92; activity call: inactive
UBC #2 | total luciferase, z-score: 0.448; total luciferase, % of control: 90.8; activity call: inactive
UBC #3 | total luciferase, z-score: 1.56; total luciferase, % of control: 113; activity call: inactive
FLJ32255 #1 | total luciferase, z-score: 0.0796; total luciferase, % of control: 83.5; activity call: inactive
FLJ32255 #2 | total luciferase, z-score: -0.121; total luciferase, % of control: 79.5; activity call: inactive
FLJ32255 #3 | total luciferase, z-score: -0.116; total luciferase, % of control: 79.6; activity call: inactive

Reprinted from the entries so far (3 entries):
HTR3D #2 | total luciferase, z-score: 1.07; total luciferase, % of control: 103; activity call: inactive
HTR3D #3 | total luciferase, z-score: -0.344; total luciferase, % of control: 75; activity call: inactive
GPR162 #1 | total luciferase, z-score: -0.357; total luciferase, % of control: 74.8; activity call: inactive
